Measurements reported in PMC13064919, “Novel extracellular vesicle release pathway facilitated by toxic superoxide dismutase 1 oligomers” (Neurobiology of disease, 2026).

Sequences of proteins named here, by UniProt entry; tags and fusion partners are left off.
UniProt Q9WUK4: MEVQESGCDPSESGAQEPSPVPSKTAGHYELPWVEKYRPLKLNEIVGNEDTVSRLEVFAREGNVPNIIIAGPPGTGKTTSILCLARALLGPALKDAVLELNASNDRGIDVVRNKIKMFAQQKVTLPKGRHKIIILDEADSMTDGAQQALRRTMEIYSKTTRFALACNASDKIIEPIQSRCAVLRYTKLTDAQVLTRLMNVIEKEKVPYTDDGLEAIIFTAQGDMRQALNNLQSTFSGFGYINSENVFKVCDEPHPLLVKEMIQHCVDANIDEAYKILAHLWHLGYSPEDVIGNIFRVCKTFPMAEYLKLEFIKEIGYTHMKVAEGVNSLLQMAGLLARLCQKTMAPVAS

What was measured:
[1] = molecular target: Valosin-containing protein (VCP) (mouse (endogenous in NSC-34)) (UniProt Q01853); test: condition: only in cells overexpressing WT SOD1 instead of FH SOD1; affinity purification with mass spectrometry; as a1, but RIPA lysate of NSC-34 cells overexpressing WT SOD1 (control)
[2] = molecular target: T1, Stathmin-2 (mouse (endogenous in NSC-34)) (UniProt P55821); test: as above
T1 sequence: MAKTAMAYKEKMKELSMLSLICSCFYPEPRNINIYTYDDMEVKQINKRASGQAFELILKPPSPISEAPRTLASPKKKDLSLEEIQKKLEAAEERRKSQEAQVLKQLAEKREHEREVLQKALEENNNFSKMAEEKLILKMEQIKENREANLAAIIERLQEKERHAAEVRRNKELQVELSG

[3] = molecular target: Valosin-containing protein (VCP) (mouse (endogenous in NSC-34)) (UniProt Q01853); test: affinity purification with mass spectrometry; RIPA lysate of NSC-34 cells overexpressing FH (F20L/H46Q, trimer-stabilising) SOD1; antibody to VAPB, VCP or Stathmin-2 overnight at 4 °C, Protein G magnetic beads 2 h at room temperature, washed three times with 1x PBS, on-bead trypsin digestion, shotgun mass spectrometry
[4] = molecular target: T1, Stathmin-2 (mouse (endogenous in NSC-34)); test: as above

Replication Factor C subunit 2 (Rfc2) (from UniProt Q9WUK4 1-349)
binding [1]: no binding | binding [2]: no binding | binding [3]: binds | binding [4]: binds

Results are given in words; binding and its absence hold for the method and conditions named. In cells and extracts the contact can be indirect. Here binding means that the protein was enriched with, or labelled near, the bait; the list need not be complete. For some of these results: A no says only that the protein was not detected with the bait.
